# Laboratory results as given in patent US9149525B2, “Delivery of corticosteroids through iontophoresis” (EyeGate Pharmaceuticals, Inc., priority 2008, dated 2015).
# Where two headings read alike, the source gives them in different places.
# What was measured:
# [1] = rabbit, in vivo
# [2] = for plasma and ocular tissue concentrations and exposure of dexamethasone, 40 mg/mL versus 60 mg/mL solution: iontophoretic administration
# [3] = 40 mg/mL; single iontophoretic dose 2.5 mA for 5 minutes; listed as DEX phosphate free acid
# [4] = after iontophoresis
# [5] = 0.1% solutions; cited from earlier work
systemic exposure (plasma) at two hours post dosing [1] [ng/mL],plasma and ocular tissue concentrations at 24 hours compared to peak concentrations ([2]; 24 hours post iontophoretic administration),"plasma and ocular tissue concentrations and exposure of dexamethasone, 40 mg/mL versus 60 mg/mL solution [2]","plasma and ocular tissue concentrations and exposure of dexamethasone, 40 mg/mL versus 60 mg/mL solution ([2]; listed as DEX-P)",time of peak dexamethasone concentrations in ocular tissues or plasma ([2]; post iontophoretic dosing),dexamethasone concentrations in plasma and ocular tissues compared to formulations prepared from DEX phosphate disodium salt [3],original DEX phosphate concentration present in the donor chamber [4],SMILES,penetration of the intact cornea [5]
< 100,–,–,–,–,–,–,"C[C@@H]1C[C@H]2[C@@H]3CCC4=CC(=O)C=C[C@]4(C)[C@@]3(F)[C@@H](O)C[C@]2(C)[C@@]1(O)C(=O)COP(=O)([O-])[O-].[Na+].[Na+] [DEX disodium phosphate, dexamethasone disodium phosphate]",–
–,relatively low,Dose proportional increases,DOSE PROPORTIONAL,within two hours,higher,Approximately 95%,"C[C@@H]1C[C@H]2[C@@H]3CCC4=CC(=O)C=C[C@]4(C)[C@@]3(F)[C@@H](O)C[C@]2(C)[C@@]1(O)C(=O)COP(=O)(O)O [DEX phosphate, dexamethasone phosphate]",do not readily penetrate
